Measurements reported in PubChem BioAssay AID504764 (Drosophila RNAi Screening Center, 2011).

Assay: 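Knock-downs that raise or lower a Notch target reporter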 (primary screen)
System: Drosophila Kc167 cells
Knock-down reagent: long dsRNA against Drosophila genes
Duration: about 5 days (4 days dsRNA, then 24 h after transfection)
Conditions: transfection of constitutively active membrane-tethered Notch lacking the extracellular domain, read 24 h later
Measurement: 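Light from a Notch-responsive E(spl)m3 luciferase reporter under active Notch, with control-promoter and no-Notch reporter wells to normalise; raw counts from paired wells a and b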
Direction: induced reporter light, run 1, well a and induced reporter light, run 1, well b: higher = more light from the Notch target reporter with active Notch; control promoter light, run 1, well a and control promoter light, run 1, well b: higher = more light from the viral control promoter (cell number, transfection, viability); uninduced reporter light, run 1, well a: higher = more light from the Notch target reporter without active Notch
Call rule: 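Hit if the duplicate-averaged log2 ratio of induced to control-promoter light gives a plate-wise z beyond ±2, or induced to uninduced beyond ±1.8; weak-control or discordant-duplicate wells dropped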
Meaning of the calls: active = modifier hit (raised or lowered Notch signal); inactive = not a hit
The deposit covers about 22,000 reagents; this is an unselected part of those that have a named target and a result. Of all reagents, 403 (1.9%) are marked active. 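Unnormalised raw counts per well; ratio z-scores behind the hit calls and whether each hit raises or lowers signal are not deposited.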 A plus sign joins genes that one reagent is predicted to hit. Not stated in the record: the amount of reagent.

| gene | PubChem SID | induced reporter light, run 1, well a | induced reporter light, run 1, well b | control promoter light, run 1, well a | control promoter light, run 1, well b | uninduced reporter light, run 1, well a | Outcome |
| --- | --- | --- | --- | --- | --- | --- | --- |
| alphaCOP (Coat Protein (coatomer) alpha) | SID104188498 | 40560 | 31415 | 52875 | 53760 | 2838 | inactive |
| mex1 (midgut expression 1) | SID104191160 | 2.09e5 | 2.16e5 | 2.52e5 | 2.24e5 | 15735 | inactive |
| Rad51D (Rad51 recombinase D) | SID104186632 | 1.39e5 | 1.70e5 | 2.25e5 | 1.82e5 | 13545 | inactive |
| AIMP3 (aaRS-interacting multifunctional protein 3) | SID104184292 | 52130 | 46955 | 43465 | 44450 | 3530 | inactive |
| gry (gryzun) | SID104187820 | 1.65e5 | 1.48e5 | 1.88e5 | 1.85e5 | 11355 | inactive |
| gry (gryzun) | SID104188310 | 1.07e5 | 1.02e5 | 99905 | 24190 | 11235 | inactive |
| mus301 (mutagen-sensitive 301) | SID104190731 | 3.23e5 | 2.38e5 | 3.62e5 | 3.11e5 | 15210 | inactive |
| alc (alicorn) | SID104186854 | 1.64e5 | 1.67e5 | 2.55e5 | 2.19e5 | 15165 | inactive |
| CG34386 | SID104186259 | 20055 | 18115 | 17760 | 19460 | 5205 | inactive |
| CG34386 | SID104186260 | 88795 | 85860 | 1.05e5 | 98925 | 6430 | inactive |
| SLC5A11 (Sodium/solute co-transporter-like 5A11) | SID104182880 | 1.56e5 | 1.67e5 | 1.73e5 | 1.68e5 | 13475 | inactive |
| CG17681 | SID104182424 | 1.29e5 | 1.31e5 | 1.35e5 | 1.53e5 | 11020 | inactive |
| Klp67A + CG34456 | SID104190212 | 1.76e5 | 1.66e5 | 3.52e5 | 3.91e5 | 9195 | active |
| c(3)G (crossover suppressor on 3 of Gowen) | SID104195037 | 1.35e5 | 2.89e5 | 3.45e5 | 4.48e5 | 17045 | inactive |
| ovo | SID104197842 | 2.98e5 | 2.77e5 | 3.53e5 | 3.49e5 | 17320 | inactive |
| ovo | SID104198604 | 1.68e5 | 1.40e5 | 2.79e5 | 2.98e5 | 11280 | inactive |
| CG6418 | SID104190425 | 1.84e5 | 1.39e5 | 1.51e5 | 65995 | 15832 | inactive |
| Cyp4d1 (Cytochrome P450 4d1) | SID104197486 | 50805 | 65600 | 85440 | 70825 | 5915 | inactive |
| Cyp4d1 (Cytochrome P450 4d1) | SID104198248 | 1.03e5 | 85265 | 1.96e5 | 2.08e5 | 7120 | inactive |
| alka (alkaliphile) | SID104185928 | 1.68e5 | 1.32e5 | 1.96e5 | 1.88e5 | 12470 | inactive |
| CG33301 | SID104182570 | 99685 | 1.17e5 | 71455 | 85440 | 14990 | inactive |
| CG15696 | SID104194910 | 1.76e5 | 1.74e5 | 1.53e5 | 1.65e5 | 12150 | inactive |
| CG13707 | SID104188108 | 1.78e5 | 2.17e5 | 2.63e5 | 1.94e5 | 9978 | inactive |
| CG34057 | SID104188167 | 1.40e5 | 1.54e5 | 2.82e5 | 2.66e5 | 7715 | inactive |

Part of the list above, reformatted.
gene	PubChem SID	induced reporter light, run 1, well a	induced reporter light, run 1, well b	control promoter light, run 1, well a	control promoter light, run 1, well b	uninduced reporter light, run 1, well a	Outcome
AIMP3 (aaRS-interacting multifunctional protein 3)	SID104184292	52130	46955	43465	44450	3530	inactive
gry (gryzun)	SID104187820	1.65e5	1.48e5	1.88e5	1.85e5	11355	inactive
gry (gryzun)	SID104188310	1.07e5	1.02e5	99905	24190	11235	inactive
mus301 (mutagen-sensitive 301)	SID104190731	3.23e5	2.38e5	3.62e5	3.11e5	15210	inactive

Additional reagents follow.
| gene | PubChem SID | induced reporter light, run 1, well a | induced reporter light, run 1, well b | control promoter light, run 1, well a | control promoter light, run 1, well b | uninduced reporter light, run 1, well a | Outcome |
| --- | --- | --- | --- | --- | --- | --- | --- |
| RpL23A (Ribosomal protein L23A) | SID104188486 | 44115 | 39235 | 62545 | 65915 | 2565 | inactive |
| Veneno | SID104196329 | 63365 | 69050 | 68720 | 49150 | 4260 | inactive |
| Cdk12 (Cyclin-dependent kinase 12) | SID104191628 | 47485 | 73610 | 30415 | 35245 | 4650 | inactive |
| CG13386 | SID104182052 | 1.32e5 | 1.77e5 | 96320 | 1.41e5 | 21250 | inactive |
| Hpf1 (Histone PARylation factor 1) | SID104191994 | 1.31e5 | 1.55e5 | 82730 | 87530 | 11190 | inactive |
| olf413 | SID104191335 | 2.87e5 | 4.00e5 | 3.58e5 | 3.74e5 | 23080 | inactive |
| olf413 | SID104191471 | 33565 | 31170 | 23275 | 26860 | 3920 | inactive |
| olf413 | SID104191513 | 1.47e5 | 1.22e5 | 1.20e5 | 91480 | 12290 | inactive |
| olf413 | SID104191625 | 1.43e5 | 93050 | 1.03e5 | 85020 | 11100 | inactive |
| Cyp6a22 (Cytochrome P450 6a22) | SID104187174 | 1.42e5 | 1.55e5 | 1.23e5 | 1.27e5 | 12135 | inactive |
| CG34304 (retired record) | SID104192602 | 1.43e5 | 1.59e5 | 2.12e5 | 1.64e5 | 12915 | inactive |
| CG17199 | SID104194984 | 1.80e5 | 1.63e5 | 1.77e5 | 1.53e5 | 10805 | inactive |
| ppk7 (pickpocket 7) | SID104183028 | 1.55e5 | 1.48e5 | 1.46e5 | 1.91e5 | 10490 | inactive |
| CG17778 | SID104198296 | 1.59e5 | 1.41e5 | 3.04e5 | 3.45e5 | 11350 | inactive |
| CG4854 | SID104195455 | 1.97e5 | 1.89e5 | 2.03e5 | 2.10e5 | 13015 | inactive |
| rost (rolling stone) | SID104183395 | 2.06e5 | 2.02e5 | 1.77e5 | 1.83e5 | 17240 | inactive |
| pio (piopio) | SID104184178 | 1.02e5 | 94890 | 61330 | 81140 | 5420 | inactive |
| CG5910 | SID104191578 | 1.21e5 | 1.44e5 | 1.04e5 | 91505 | 7475 | inactive |
| BEAF-32 (Boundary element-associated factor of 32kD) | SID104185719 | 1.13e5 | 85780 | 1.02e5 | 92555 | 6028 | inactive |
| ACXC (Adenylyl cyclase X C) | SID104180638 | 1.39e5 | 1.52e5 | 1.57e5 | 1.67e5 | 13505 | inactive |
| Vav (Vav guanine nucleotide exchange factor) | SID104200176 | 96510 | 94605 | 1.15e5 | 1.24e5 | 11115 | inactive |
| Karybeta3 (Karyopherin beta 3) | SID104192147 | 1.38e5 | 1.40e5 | 65395 | 79270 | 5620 | inactive |
| mRpL33 (mitochondrial ribosomal protein L33) | SID104198111 | 1.16e5 | 1.47e5 | 2.19e5 | 2.17e5 | 10105 | inactive |
| vrs (versager) | SID104195624 | 88880 | 1.08e5 | 89840 | 91465 | 6005 | inactive |
| RpL28 + snoRNA:Or-CD12 | SID104188085 | 27365 | 24990 | 47955 | 48690 | 1920 | inactive |
| RpL34a (Ribosomal protein L34a) | SID104195756 | 1.42e5 | 1.29e5 | 1.90e5 | 1.43e5 | 10985 | inactive |
| CG4951 | SID104195474 | 44445 | 39940 | 43230 | 51455 | 4255 | inactive |
| Adar (Adenosine deaminase acting on RNA) | SID104197517 | 1.07e5 | 1.18e5 | 1.54e5 | 1.77e5 | 6505 | inactive |
| mura (murashka) | SID104196275 | 72260 | 85645 | 1.00e5 | 66230 | 5025 | inactive |
| mura (murashka) | SID104196276 | 85480 | 91495 | 71995 | 54595 | 5490 | inactive |
| Ice2 (Interacts with the C terminus of ELL 2) | SID104194060 | 11320 | 14620 | 13050 | 12078 | 935 | inactive |
| RpL18 (Ribosomal protein L18) | SID104190808 | 2.13e5 | 1.81e5 | 2.51e5 | 1.87e5 | 10005 | inactive |
| Elp6 (Elongator complex protein 6) | SID104196363 | 1.21e5 | 1.20e5 | 87185 | 97155 | 8365 | inactive |
| Gmap (Golgi microtubule-associated protein) | SID104199780 | 77065 | 87065 | 96400 | 1.06e5 | 4295 | inactive |
| Gmap (Golgi microtubule-associated protein) | SID104199849 | 1.16e5 | 87040 | 98450 | 1.37e5 | 15895 | inactive |
| CdGAPr (Cd GTPase activating protein-related) | SID104183081 | 68680 | 54320 | 53755 | 88880 | 3875 | inactive |
| Treh (Trehalase) | SID104184340 | 1.65e5 | 2.10e5 | 1.76e5 | 1.78e5 | 12790 | inactive |
| e(r) (enhancer of rudimentary) | SID104198560 | 2.04e5 | 2.19e5 | 2.62e5 | 2.48e5 | 14465 | inactive |
| Papst2 (PAPS transporter 2) | SID104190716 | 1.07e5 | 1.64e5 | 85015 | 75940 | 9082 | inactive |
| pHCl-1 (pH-sensitive chloride channel 1) | SID104189193 | 1.99e5 | 1.70e5 | 3.05e5 | 3.03e5 | 18410 | inactive |
| pHCl-1 (pH-sensitive chloride channel 1) | SID104189783 | 1.97e5 | 1.62e5 | 1.99e5 | 1.85e5 | 6600 | inactive |
| pHCl-1 (pH-sensitive chloride channel 1) | SID104190381 | 1.78e5 | 1.89e5 | 2.26e5 | 1.92e5 | 8138 | inactive |
